Data as given in PubChem BioAssay AID720505 (Drosophila RNAi Screening Center, 2013)

Assay: 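Knock-downs that reduce calcium influx once internal stores are emptied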 (primary screen)
System: Drosophila S2R+ cells
Reagents: long dsRNA against Drosophila genes
Challenge: thapsigargin (2 µM) in calcium-free buffer to empty internal stores, then 2 mM calcium added back
Measured: 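Stores emptied by 2 µM thapsigargin without calcium, then 2 mM calcium re-added; fluo-4 fluorescence followed by FLIPR in 384-well plates, per-well averaged endpoint, raw; two screen passes, some wells retested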
Scale: calcium signal and retest calcium signal: higher = more calcium entry after store depletion
Active means: 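Knock-downs counted as hits when calcium entry dropped relative to STIM1 positive and Rho1 negative controls present on each plate; roughly 1500 genes called, with reductions of differing size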
Meaning of the calls: active = called as lowering calcium entry; inactive = not called
The deposit covers about 20,000 reagents; shown is an unselected part of those with a known target gene and a result. Over the whole deposit, about 2,100 (10%) got an active call. 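Raw plate signals without normalisation; calls rest on control-based scores that were not deposited; replicate 2 separates called from uncalled poorly.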 Reagents against one gene are numbered here. A plus sign joins genes that one reagent is predicted to hit. Reagent sequences are not shown. Not stated in the record: the amount of reagent, the time to read-out.

target	reagent	calcium signal, replicate 1	calcium signal, replicate 2	retest calcium signal, replicate 1	retest calcium signal, replicate 2	Call
Afg3l2 (AFG3 like matrix AAA peptidase subunit 2)	1	92.3	119			inactive
Hr83 (Hormone receptor 83)	1	101	129			inactive
Prosbeta5 (Proteasome beta5 subunit)	1	66.8	117			active
GstE4 (Glutathione S transferase E4)	1	129	105			inactive
CR11023 (pseudo)	1	166	139			inactive
CG34109	1	116	108			inactive
CG34109	2	101	123			inactive
CG34109	3	87.7	111			inactive
CG4701	1	122	138			inactive
CG12147	1	136	139			inactive
UQCR-C2 (Ubiquinol-cytochrome c reductase core protein 2)	1	93.2	180			inactive
Lcp65APsi (pseudo)	1	172	119			inactive
Zfrp8 (Zinc finger protein RP-8)	1	96.8	145			inactive
CG14634	1	130	185			inactive
dor (deep orange)	1	88.6	142			inactive
gwl (greatwall)	1	86	152			inactive
tmod (tropomodulin)	1	136	128			inactive
tmod (tropomodulin)	2	168	186			inactive
tmod (tropomodulin)	3	99	109			inactive
lt (light)	1	194	122			inactive
dlp (dally-like)	1	104	92.3			inactive
dlp (dally-like)	2	79	231			inactive
Sec13 (Secretory 13)	1	162	253			inactive
EMC2B (ER membrane protein complex subunit 2B)	1	124	143			inactive
CG7763	1	134	168			inactive
wash (washout)	1	91.2	121			inactive
Droj2 (DnaJ-like-2)	1	119	83.2			inactive
Ifrd1 (Interferon-related developmental regulator 1)	1	104	80.9			inactive
Ifrd1 (Interferon-related developmental regulator 1)	2	81.9	78.1			inactive
Adar (Adenosine deaminase acting on RNA)	1	101	172			inactive
Cyp4ad1 (Cytochrome P450 4ad1)	1	212	147			inactive
RpS18 (Ribosomal protein S18)	1	69	101			active
CG31226	1	130	111			inactive

Hits (from the list above):
target	reagent	calcium signal, replicate 1	calcium signal, replicate 2	retest calcium signal, replicate 1	retest calcium signal, replicate 2	Call
Prosbeta5 (Proteasome beta5 subunit)	1	66.8	117			active
RpS18 (Ribosomal protein S18)	1	69	101			active

Additional reagents:
target	reagent	calcium signal, replicate 1	calcium signal, replicate 2	retest calcium signal, replicate 1	retest calcium signal, replicate 2	Call
Grd (Glycine receptor)	1	135	155			inactive
nahoda	1	94.5	9682			inactive
nahoda	2	135	99.7			inactive
CG17030	1	88.3	80.4			inactive
CG32488	1	137	143			inactive
CG32488	2	157	88.3			inactive
CG42346	1	180	112			inactive
CG42346	2	171	88.1			inactive
Toll-9	1	105	156			inactive
Prp19 (Pre-RNA processing factor 19)	1	153	195			inactive
CG4820	1	98.1	83.9			inactive
euc (eucalyptus)	1	128	94.7			inactive
CG15891 + CG15892	1	133	109			inactive
CG15891 + CG15892	2	152	134			inactive
CG34347	1	245	136			inactive
CG34347	2	223	114			inactive
CG34347	3	30.8	40.1			active
CG34347	4	78.5	105			inactive
Tps1 (Trehalose-6-phosphate synthase 1)	1	143	238			inactive
SLC5A11 (Sodium/solute co-transporter-like 5A11)	1	127	241			inactive
tctn + B9d2	1	148	110			inactive
CG12825	1	55.6	60.2	56.5	94.4	active
TwdlB (TweedleB)	1	57	93.3			active
